Patent publication US5082784
For part of these data: Negatives hold for the conditions tested. For part of these data: Protein sequences can lack the tags named with them. For part of these data: Construct, isoform or probe ends are uncertain for at least one entry. For part of these data: Weaker means in comparison with the reference protein, sequence or condition of that experiment.

Columns and labels:
[1] = target: T1, KpnI methylase (Klebsiella pneumoniae BRL 25) (UniProt P25238); assay: activity in cells; settings: plasmid and chromosomal DNA resistant to KpnI; protein in cells; only the site is given
T1 sequence (looked up, limits assumed): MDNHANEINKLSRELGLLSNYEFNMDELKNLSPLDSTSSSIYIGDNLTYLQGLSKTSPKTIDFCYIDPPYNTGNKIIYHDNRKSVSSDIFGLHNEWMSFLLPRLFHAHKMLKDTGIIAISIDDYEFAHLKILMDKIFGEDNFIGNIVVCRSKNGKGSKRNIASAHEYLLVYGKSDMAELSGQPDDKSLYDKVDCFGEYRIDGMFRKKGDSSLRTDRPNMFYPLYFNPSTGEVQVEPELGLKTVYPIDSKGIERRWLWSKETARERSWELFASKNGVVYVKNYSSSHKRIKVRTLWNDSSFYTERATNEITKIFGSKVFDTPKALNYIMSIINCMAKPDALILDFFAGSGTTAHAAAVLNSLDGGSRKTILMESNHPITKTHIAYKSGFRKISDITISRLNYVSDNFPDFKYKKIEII

[2] = system: KpnI methylase, deletion derivative pKpnM45 (Klebsiella pneumoniae BRL 25); assay: activity in cells; settings: partial methylase activity; protein in cells; only the site is given
[3] = target: T2, KpnI restriction endonuclease (Klebsiella pneumoniae BRL 25) (UniProt P25237); assay: enzyme reaction in vitro; settings: methylated by KpnI methylase (position not given); DNA from pKpnM30 host protected from KpnI cleavage; no cleavage seen, binding not measured; protein in an extract
T2 sequence (looked up, limits assumed): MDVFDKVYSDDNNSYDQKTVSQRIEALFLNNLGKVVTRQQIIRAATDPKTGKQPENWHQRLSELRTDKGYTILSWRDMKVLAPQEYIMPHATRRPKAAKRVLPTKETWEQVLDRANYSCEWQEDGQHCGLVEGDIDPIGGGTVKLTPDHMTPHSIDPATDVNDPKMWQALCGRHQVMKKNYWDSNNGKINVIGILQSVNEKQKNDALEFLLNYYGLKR

Sequence	activity on this sequence [1]	activity on this sequence [2]	activity on this sequence [3]
GGTACC (double strand) [KpnI sites in host chromosomal and plasmid DNA]	active	less active	
GGTACC (double strand) [KpnI sites methylated by KpnI methylase]			not active
